Binding data for three molecules are collected here from PMC5773555, “Structural basis of SALM5-induced PTPδ dimerization for synaptic differentiation” (Nature Communications, 2018).

No constants are given. Whether binding was seen depends on the method and setting. For some assays here: Sequences can lack the tags named with a protein.

The target of test [1] is human PTPδ Ig1–3 (MeA^−) (human) (UniProt P23468). As to the kind of experiment: crystal structure; SALM5 LRR-Ig in complex with PTPδ Ig1–3 (MeA^−), Endo H trimmed; 3.73 Å; 0.76 M potassium sodium tartrate, 0.1 M MES pH 6.0; molecular replacement; both purified.
For test [2], the target named is T1, Fc-tagged human PTPδ Ig1–3 (MeA^−) (human) (UniProt P23468).
T1 sequence: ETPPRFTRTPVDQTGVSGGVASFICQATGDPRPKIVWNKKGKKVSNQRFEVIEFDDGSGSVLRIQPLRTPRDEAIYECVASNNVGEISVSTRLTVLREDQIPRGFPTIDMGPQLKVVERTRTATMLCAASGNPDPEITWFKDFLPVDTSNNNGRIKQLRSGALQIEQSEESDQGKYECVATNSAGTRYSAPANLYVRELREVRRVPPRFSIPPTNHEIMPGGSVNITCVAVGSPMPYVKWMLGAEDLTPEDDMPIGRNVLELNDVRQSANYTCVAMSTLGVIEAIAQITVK
As to the kind of experiment: SPR; Biacore T200, 25 °C; Fc-tagged PTPδ Ig1–3 (MeA^−) amine-coupled to CM5 (about 500 RU); SALM5 LRR-Ig analytes 23.43-1500 nM; 10 mM HEPES pH 7.4, 150 mM NaCl, 3 mM EDTA, 0.05% P20; 1:1 Langmuir model; both purified.

Test [3] addresses T1, Fc-tagged human PTPδ Ig1–3 (MeA^−) (human). Kind of test: pull-down; SALM5 LRR-Ig mixed with PTPδ Ig1–3 (MeA^−)-Fc at molar ratio 1.5:1, captured on Protein G Sepharose, room temperature 2 h, PBS washes, SDS-PAGE with Coomassie staining; both purified.

B1: human PTPδ Ig1–3 (MeA^−) (domain or fragment, UniProt P23468 21-320, looked up)
chain: ETPPRFTRTPVDQTGVSGGVASFICQATGDPRPKIVWNKKGKKVSNQRFEVIEFDDGSGSVLRIQPLRTPRDEAIYECVASNNVGEISVSTRLTVLREDQIPRGFPTIDMGPQLKVVERTRTATMLCAASGNPDPEITWFKDFLPVDTSNNNGRIKQLRSGALQIEQSEESDQGKYECVATNSAGTRYSAPANLYVRELREVRRVPPRFSIPPTNHEIMPGGSVNITCVAVGSPMPYVKWMLGAEDLTPEDDMPIGRNVLELNDVRQSANYTCVAMSTLGVIEAIAQITVK
notes: Glycans trimmed with Endo H only for crystallization; also called MeA^−/MeB^+; source: BacMam baculovirus-transduced HEK293 GnTI- cells, secreted, purified (Ni-NTA, gel filtration); not shown: His7, C-terminal, kept
For B1, the binding entry in test [1] is listed as “no binding”.

B2: human SALM5 LRR-Ig E365N (domain or fragment, UniProt Q96NI6 18-374)
chain: QICPKRCVCQILSPNLATLCAKKGLLFVPPNIDRRTVELRLADNFVTNIKRKDFANMTSLVDLTLSRNTISFITPHAFADLRNLRALHLNSNRLTKITNDMFSGLSNLHHLILNNNQLTLISSTAFDDVFALEELDLSYNNLETIPWDAVEKMVSLHTLSLDHNMIDNIPKGTFSHLHKMTRLDVTSNKLQKLPPDPLFQRAQVLATSGIISPSTFALSFGGNPLHCNCELLWLRRLSREDDLETCASPPLLTGRYFWSIPEEEFLCEPPLITRHTHEMRVLEGQRATLRCKARGDPEPAIHWISPEGKLISNATRSLVYDNGTLDILITTVKDTGAFTCIASNPAGNATQIVDLHI
modifications: introduced N-linked glycan wedge GlcNAc2Man5 (confirmed by mass spectrometry)
As for B2, the binding entry was “no binding (tested: 1500 nM (highest concentration injected))” in test [2] and “no binding” in test [3].

B3: human SALM5 LRR-Ig K309N/R311T (domain or fragment, UniProt Q96NI6 18-374)
chain: QICPKRCVCQILSPNLATLCAKKGLLFVPPNIDRRTVELRLADNFVTNIKRKDFANMTSLVDLTLSRNTISFITPHAFADLRNLRALHLNSNRLTKITNDMFSGLSNLHHLILNNNQLTLISSTAFDDVFALEELDLSYNNLETIPWDAVEKMVSLHTLSLDHNMIDNIPKGTFSHLHKMTRLDVTSNKLQKLPPDPLFQRAQVLATSGIISPSTFALSFGGNPLHCNCELLWLRRLSREDDLETCASPPLLTGRYFWSIPEEEFLCEPPLITRHTHEMRVLEGQRATLRCNATGDPEPAIHWISPEGKLISNATRSLVYDNGTLDILITTVKDTGAFTCIASNPAGEATQIVDLHI
modifications: introduced N-linked glycan wedge GlcNAc2Man5 (confirmed by mass spectrometry)
Regarding B3, the binding result in test [2] is “no binding (tested: 1500 nM (highest concentration injected))”; in test [3], “no binding”.
